Experimental data published in publication PMC4263763, “Crystal Structure of Calcium Binding Protein-5 from Entamoeba histolytica and Its Involvement in Initiation of Phagocytosis of Human Erythrocytes” (PLoS Pathogens, 2014).
Results are given in words; binding and its absence hold for the method and conditions named. Tags and fused reporters may be left off the sequences shown.

Amino acid sequences for entries named in this document (tags omitted). Residues count along the entry.
UniProt P02769, residues 25-607: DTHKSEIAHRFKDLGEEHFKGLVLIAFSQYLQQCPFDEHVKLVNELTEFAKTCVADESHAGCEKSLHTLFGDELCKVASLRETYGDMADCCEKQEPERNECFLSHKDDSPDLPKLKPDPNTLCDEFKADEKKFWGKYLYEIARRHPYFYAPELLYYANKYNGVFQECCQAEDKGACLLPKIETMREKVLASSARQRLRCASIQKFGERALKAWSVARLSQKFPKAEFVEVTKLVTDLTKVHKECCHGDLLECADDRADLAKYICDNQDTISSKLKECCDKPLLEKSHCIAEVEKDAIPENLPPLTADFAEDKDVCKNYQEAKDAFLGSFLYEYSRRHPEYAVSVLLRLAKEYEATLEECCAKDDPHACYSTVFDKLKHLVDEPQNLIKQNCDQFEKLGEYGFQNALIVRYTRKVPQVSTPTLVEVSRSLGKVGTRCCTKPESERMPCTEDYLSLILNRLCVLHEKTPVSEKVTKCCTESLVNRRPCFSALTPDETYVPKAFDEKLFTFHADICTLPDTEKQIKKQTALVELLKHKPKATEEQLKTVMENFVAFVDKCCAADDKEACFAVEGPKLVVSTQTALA

Molecular target: T1, IQ motif peptide of myosin 1B (native) (Entamoeba histolytica)
T1 sequence (peptide): IQKAWKGYRNRKR
Experiment: SPR; both purified

Which binding does the source give for “bovine serum albumin (from UniProt P02769 25-607)” here?
The binding was “no binding (tested: 750 nM)”.
